Test results reported in article PMC6131810.
No constants are given. Whether binding was seen depends on the method and setting. Binding seen in cells or lysates may run through a third protein. Some results given as binding are weak or reduced against the parent protein; the word gives no strength. Values belong to the molecule of their own block, whether it stands above or below them.

Amino acid sequences for entries named in this document (tags omitted).
UniProt Q91YI4: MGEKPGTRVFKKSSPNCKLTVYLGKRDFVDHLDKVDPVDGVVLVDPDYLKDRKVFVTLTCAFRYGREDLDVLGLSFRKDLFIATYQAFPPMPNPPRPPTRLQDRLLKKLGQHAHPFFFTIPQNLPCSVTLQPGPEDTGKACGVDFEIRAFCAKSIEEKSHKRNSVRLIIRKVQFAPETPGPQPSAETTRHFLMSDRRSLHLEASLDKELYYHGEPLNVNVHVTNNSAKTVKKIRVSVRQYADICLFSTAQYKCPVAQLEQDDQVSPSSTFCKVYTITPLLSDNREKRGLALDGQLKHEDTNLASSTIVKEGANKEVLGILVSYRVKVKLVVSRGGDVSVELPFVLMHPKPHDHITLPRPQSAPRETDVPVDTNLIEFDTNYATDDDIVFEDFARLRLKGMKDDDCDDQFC

Molecular target: T1, Transforming growth factor-beta-activated kinase 1 (TAK1)-binding protein 1 (mouse (endogenous in primary astrocytes)) (UniProt Q8CF89)
T1 sequence: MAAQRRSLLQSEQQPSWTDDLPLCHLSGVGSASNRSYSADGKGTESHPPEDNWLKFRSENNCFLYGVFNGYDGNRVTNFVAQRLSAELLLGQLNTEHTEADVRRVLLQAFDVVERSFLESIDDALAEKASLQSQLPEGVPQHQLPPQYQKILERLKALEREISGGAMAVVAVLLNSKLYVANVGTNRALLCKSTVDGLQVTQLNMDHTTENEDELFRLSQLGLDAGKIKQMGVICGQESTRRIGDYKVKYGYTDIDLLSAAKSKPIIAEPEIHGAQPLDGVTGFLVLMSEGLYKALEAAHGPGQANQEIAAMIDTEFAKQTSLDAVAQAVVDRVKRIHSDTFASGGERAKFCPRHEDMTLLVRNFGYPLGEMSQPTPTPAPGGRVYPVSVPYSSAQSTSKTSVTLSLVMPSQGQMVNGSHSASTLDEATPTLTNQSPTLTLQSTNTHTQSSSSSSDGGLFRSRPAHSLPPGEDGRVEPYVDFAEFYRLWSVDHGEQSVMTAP
Experiment: co-IP; total lysate of mouse primary astrocytes incubated with anti-TAB1 antibody, then protein A/G plus agarose; bound proteins immunoblotted; cells pretreated with quinpirole for 1 h before LPS, WT α-Syn or A53T α-Syn

- binding: binds
Molecule: β-arrestin2 (from UniProt Q91YI4 1-410)

- binding: binds
B1: Transforming growth factor-beta-activated kinase 1 (protein, UniProt Q62073 1-579)
chain: MSTASAASSSSSSSASEMIEAPSQVLNFEEIDYKEIEVEEVVGRGAFGVVCKAKWRAKDVAIKQIESESERKAFIVELRQLSRVNHPNIVKLYGACLNPVCLVMEYAEGGSLYNVLHGAEPLPYYTAAHAMSWCLQCSQGVAYLHSMQPKALIHRDLKPPNLLLVAGGTVLKICDFGTACDIQTHMTNNKGSAAWMAPEVFEGSNYSEKCDVFSWGIILWEVITRRKPFDEIGGPAFRIMWAVHNGTRPPLIKNLPKPIESLMTRCWSKDPSQRPSMEEIVKIMTHLMRYFPGADEPLQYPCQYSDEGQSNSATSTGSFMDIASTNTSNKSDTNMEQVPATNDTIKRLESKLLKNQAKQQSESGRLSLGASRGSSVESLPPTSEGKRMSADMSEIEARIVATAGNGQPRRRSIQDLTVTGTEPGQVSSRSSSPSVRMITTSGPTSEKPARSHPWTPDDSTDTNGSDNSIPMAYLTLDHQLQPLAPCPNSKESMAVFEQHCKMAQEYMKVQTEIALLLQRKQELVAELDQDEKDQQNTSRLVQEHKKLLDENKSLSTYYQQCKKQLEVIRSQQQKRQGTS
